According to patent US20080193921, “Methods to identify agents that bind the flap-tip helix of RNA polymerase” (Wisconsin Alumni Research Foundation, published 2008):
For part of these data: Construct, isoform or probe ends are uncertain for at least one entry.

Columns and labels:
[1] = test system: RNA polymerase sigma70 holoenzyme, wild-type (Escherichia coli); assay: activity assay; conditions: in vitro transcription, purified recombinant protein, protein details: core plus sigma70
[2] = test system: RNA polymerase beta F934A (Escherichia coli); assay: binding assay; conditions: 5-iodoU in hairpin loop; 5-iodoU crosslink retained in paused TEC; purified recombinant protein; label: 32P; variant of his pause RNA hairpin, wild-type

In the case of “GAGAGACAACTTAAAGAGACTTAAAAGATTAATTTAAAATTTATCAAAAAGAGTATTGACTTAAAGTCTAACCTATAGGATACTTACAGCCATCGAGAGGGACACGGGGAAACACCACCATCATCACCATCATCCTGACTAGTCTTT (double strand) [T7 A1 promoter template]”, the “activity on this sequence” value ([1]; 25 nM RNAP, 50 nM template, heparin, 37 C) was “active”.

In the case of “CACTAATTTATTCCATGTCACACTTTTCGCATCTTTTTTATGCTATAATTATTTCATCGAGAGGGACACGGGGAAACACCACCATCATCACCATCATCCTGACTAGTCTTT (double strand) [galP1 consensus -10 promoter template]”, the “activity on this sequence” value ([1]; -35 independent promoter) was “active”.

“CCUGCUUCGGCAGGCGAUGUGUGCUG [his pause RNA, tetraloop hairpin]”: binds [2].
